Experimental data: PubChem BioAssay AID624291 (National Center for Advancing Translational Sciences (NCATS), 2012)
Screen size: about 350,000 compounds; about 220 (0.063%) were called active. The inconclusive results got no clear call from the source; some entries with a clear call stand among them for comparison. The call rests on the fitted dose curve; in most records, active means well fitted activation curve with a large enough effect; inconclusive means small, poorly fitted or top-dose-only effect; inactive means no such curve, though single readings can be large or run the other way. Potencies of inconclusive entries are doubtful fits and often do not repeat.

experiment: qHTS for Activators of Integrin-Mediated Alleviation for Muscular Dystrophy; conditions: alpha7betagal myoblasts, beta-gal FDG fluorescence, 48 h; activation: at 38.3 µM (top of the series); further: nearly all actives have a fitted effect of over 60% in size;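 on activation: 100% = response of the positive control SU9516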
Outline: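 Alpha7betagal+/- myoblasts (passage 13) were plated 16-24 hr, then exposed to compounds (1:260 dilution of DMSO stock) for 48 hours at 37C. After MPER lysis, β-galactosidase reporter activity was read as FDG fluorescence (ex 480/em 540) after 30 minutes.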
Potency means the concentration at half of the fitted maximal effect.

Row | SMILES | Potency | activation
1 | CCCOc1ccc2cc(C(=O)NCc3ccccc3)c(=O)oc2c1 | inactive | –
2 | CCCNC(=O)c1ccc(C2SCC(=O)N2Cc2ccccc2)cc1 (centres undefined) | inactive | –
3 | CC1(C)Cc2c(sc3c2c2ncnn2c2nnc(SCC(=O)NCc4ccco4)n32)CO1 | inactive | –
4 | S=c1[nH]nc(COc2ccccc2)n1/N=C/C=C/c1ccco1 | inactive | –
5 | CN(C)CCCn1c(SCC(=O)Nc2nccs2)nnc1-c1ccncc1 | inconclusive: 3.98 µM [activator, full curve, poor fit] | –
6 | N=c1n(-c2ccccc2)c(O)cc(=O)n1-c1ccccc1 | inconclusive: 11.2 µM [activator, partial curve, poor fit] | –
7 | O=C(NCCOc1ccc2ccccc2c1)c1cncc(Br)c1 | inactive | –
8 | COc1ccccc1NS(=O)(=O)c1cccc(C(=O)NCC2(N3CCCCC3)CCCCC2)c1 | inactive | –
9 | CS(=O)(=O)N(CC(=O)NCc1ccco1)c1ccc(Cl)cc1Cl | inconclusive: 5.01 µM [activator, single point] | –
10 | O=C(Nc1ccc(NC(=O)c2ccco2)c(Cl)c1)c1cccc([N+](=O)[O-])c1 | inconclusive: 22.4 µM [activator, single point] | –
11 | C=CCn1c(C)cc(C(=O)COC(=O)c2ccc3c(c2)NC(=O)CS3)c1C | inactive | –
12 | O=S(Cc1ccc(Br)cc1)Cc1nnc(SCc2c(Cl)cccc2Cl)n1-c1ccccc1 (centres undefined) | inconclusive: 28.2 µM [activator, partial curve, poor fit] | –
13 | Cc1cccc(-n2c(=S)[nH]c3nc4c(cc3c2=O)COC(C)(C)C4)c1 | inactive | –
14 | CCc1ccccc1Nc1ncnc2ccccc12 | inconclusive: 2.51 µM [activator, single point] | –
15 | O=C(CC1(O)C(=O)Nc2ccccc21)c1cccc(-n2cccc2)c1 (centres undefined) | inactive | –
16 | CC1Cc2ccccc2N1C(=S)NC1CCCC1 (centres undefined) | inconclusive: 3.55 µM [activator, single point] | –
17 | N#Cc1ccc(N2C(=O)[C@@H]3C(C(=O)c4ccc5ccccc5n4)=NN[C@@H]3C2=O)cc1 | inconclusive: 10 µM [activator, single point] | –
18 | COc1ccccc1-c1nn(-c2ccccc2)cc1C(=O)NCC(c1ccco1)N1CCCC1 (centres undefined) | inconclusive: 5.01 µM [activator, single point] | –
19 | CCCCc1nnc(NC(=O)C23CC4CC(CC(NC(C)=O)(C4)C2)C3)s1 | inconclusive: 11.2 µM [activator, partial curve, poor fit] | –
20 | O=C(NCc1ccco1)C(c1cccs1)N(C(=O)C1COc2ccccc2O1)c1cccc(O)c1 (centres undefined) | inactive | –
21 | COc1cccc(NC(=O)CSc2nnc(NC(=O)C3CCC3)s2)c1 | inconclusive: 28.2 µM [activator, single point] | –
22 | COc1cc2c(cc1OC)C(c1ccccc1OC(C)C)CC(=O)N2 (centres undefined) | inconclusive: 3.16 µM [activator, single point] | –
23 | Cc1onc(-c2ccccc2)c1C(=O)NC(=S)Nc1sc2c(c1C#N)CCCC2 | inconclusive: 2.82 µM [activator, single point] | –

Given in markdown: part of the list above

| Row | SMILES | Potency | activation |
| --- | --- | --- | --- |
| 10 | O=C(Nc1ccc(NC(=O)c2ccco2)c(Cl)c1)c1cccc([N+](=O)[O-])c1 | inconclusive: 22.4 µM [activator, single point] | – |
| 11 | C=CCn1c(C)cc(C(=O)COC(=O)c2ccc3c(c2)NC(=O)CS3)c1C | inactive | – |

Later entries.

Row | SMILES | Potency | activation
24 | Cn1c(=N)n(CC(=O)c2ccc(Br)cc2)c2ccccc21 | inconclusive: 10 µM [activator, single point] | –
25 | O=C(O)c1ccc(CSc2nnc(-c3cccnc3)n2-c2ccc(Br)cc2)cc1 | inconclusive: 22.4 µM [activator, single point] | –
26 | CCN(CC)C(=O)Cn1c(=O)c2ccccc2n2c(=S)sc(-c3cccc(C)c3)c12 | inactive | –
27 | CCOC(=O)/C(C(N)=NCCO)=C(/O)c1ccccc1 | active: 12.6 µM | –
28 | O=C(N/N=C/c1cc2c(cc1Br)OCO2)c1cc2ccccc2o1 | inactive | –
29 | CCOc1ccc(NC(=O)CCc2nnc3ccc(N4CCN(C)CC4)nn23)cc1 | inconclusive: 28.2 µM [activator, single point] | –
30 | CCn1cc(S(=O)(=O)NCCc2ccc(F)cc2)cn1 | inconclusive: 5.01 µM [activator, single point] | –
31 | OCC1(Cc2ccccc2)CCCN(Cc2ccc(-c3ccco3)cc2)C1 (centres undefined) | inconclusive: 4.47 µM [activator, single point] | –
32 | CCCc1nnc(NC(=O)CCC(=O)NC2CC2)s1 | inconclusive: 0.501 µM [activator, full curve, poor fit] | –
33 | CCN1C[C@@H]2[C@@H]3C(=O)N(Cc4ccccc4)C(=O)[C@@H]3[C@](C)(C(=O)OC)N2C1=NC1CCCCC1 | inactive | –
34 | O=c1cc(CCl)[nH]c2nc3ccccc3n12 | – | inconclusive: -46.3% [activator]
35 | COc1ccc(C2NC(=O)CCC2[N+](=O)[O-])c(OC)c1OC (centres undefined) | inconclusive: 1 µM [activator, full curve, poor fit] | –
36 | COc1ccc(NC(=O)c2csc(Cc3ccc(Cl)cc3)n2)cc1 | inconclusive: 28.2 µM [activator, single point] | –
37 | O=C(Nc1ccnc(=O)[nH]1)c1sc2ccccc2c1Cl | inconclusive: 5.01 µM [activator, single point] | –
38 | COc1ccc(NC(=O)Cc2nnc(SCC(=O)c3ccc(F)cc3)n2C)cc1 | inconclusive: 28.2 µM [activator, single point] | –
39 | CCC1Sc2ccc(S(=O)(=O)CCC(=O)Nc3ccccc3Cl)cc2NC1=O (centres undefined) | inconclusive: 0.501 µM [activator, full curve, poor fit] | –
40 | COc1cc(/C=C(/Sc2nnc(-c3ccc(F)cc3)o2)C(=O)O)ccc1OC(F)F | inconclusive: 5.01 µM [activator, single point] | –
41 | CSc1cccc(N=C2C(=O)Nc3ccccc32)c1 | inconclusive: 15.8 µM [activator, partial curve, poor fit] | –
42 | CCc1cc(=O)oc2cc(OCc3ccc(C(=O)O)o3)ccc12 | inactive | –
43 | Cc1nc(N2CCN(c3ccccc3)CC2)[nH]c(=O)c1CCC(C)C | inconclusive: 14.1 µM [activator, partial curve, poor fit] | –
44 | OCCOCCn1c(C2CCCN2c2nc(-c3ccc(F)cc3)cs2)nc2cc(C(F)(F)F)ccc21 (centres undefined) | inactive | –
45 | OCCN(Cc1ccccc1)C(=S)NC1CCCCC1 | inactive | –
46 | CC(Oc1ccc(Cl)cc1Cl)C(=O)NNC(=O)c1cccnc1 (centres undefined) | inconclusive: 5.01 µM [activator, single point] | –

Row | SMILES | Potency | activation
47 | CCOC(=O)C(C#N)=CN1CCNc2ccccc21 | inactive | –
48 | CCCn1c(=O)n(CC(=O)NCC2CCCO2)c(=O)c2c3c(sc21)COC(C)(C)C3 (centres undefined) | inconclusive: 3.98 µM [activator, full curve, poor fit] | –
49 | COc1ccc(NC(=O)c2cc(-c3ccco3)nc3ccccc23)cc1S(=O)(=O)N1CCOCC1 | inconclusive: 1.78 µM [activator, single point] | –
50 | Cc1ccc(-n2c(SCC(=O)Nc3cccc(S(=O)(=O)NC4=NCCCCC4)c3)nc3ccccc3c2=O)cc1C | inconclusive: 3.55 µM [activator, partial curve, poor fit] | –
51 | Cc1nc(NCCc2ccc(O)cc2)c2nnn(Cc3ccccc3)c2n1 | inactive | –
52 | O=C(O)c1ccc(COc2ccc([N+](=O)[O-])cc2)o1 | inconclusive: 5.01 µM [activator, single point] | –
53 | Cc1ccc(C)c(Nc2c([N+](=O)[O-])ccc3nonc23)c1 | inconclusive: 2.82 µM [activator, partial curve, poor fit] | –
54 | CCC[N+]1(CC#CC2(O)CCCCC2)CCOCC1 | inconclusive: 28.2 µM [activator, single point] | –
55 | CCOC(=O)COc1ccc(S(=O)(=O)NCc2ccncc2)cc1 | – | inconclusive: -17.7% [activator]
56 | Cc1cc(=O)oc2c3c(ccc12)OC/C3=N/N | inconclusive: 5.01 µM [activator, partial curve, poor fit] | –
57 | Cc1cccc(C)c1OCC(O)CNC(C)c1ccccc1 (centres undefined) | inconclusive: 14.1 µM [activator, single point] | –
58 | O=C(N/N=C/c1ccc2c(c1)OCO2)C(=O)Nc1ccccc1 | inconclusive: 12.6 µM [activator, single point] | –
59 | Nc1nc(SCC(=O)Nc2ccc([N+](=O)[O-])cc2)[nH]c(=O)c1NC(=O)c1ccc(Br)o1 | inactive | –
60 | COc1cccc(NC(=O)C(=O)N/N=C/c2cc(C)n(-c3ccc(Cl)c(Cl)c3)c2C)c1 | inactive | –
61 | CCN(CC)CCN1C(=O)C(=O)/C(=C(/O)c2ccc(OC(C)C)cc2)C1c1cccs1 (centres undefined) | inactive | –
62 | Cc1ccc(-n2c(N)c(C(=O)Nc3ccccc3F)sc2=S)cc1C | inconclusive: 12.6 µM [activator, single point] | –
63 | Cc1nc(C)c(C(=O)Nc2cccc(C)c2C)s1 | inconclusive: 11.2 µM [activator, single point] | –
64 | Cc1ccc(Cl)cc1NC(=O)Nc1cccs1 | inactive | –
65 | O=C(NCc1ccc(S(=O)(=O)NC2CCCCC2)s1)c1ccccc1 | inconclusive: 3.55 µM [activator, partial curve, poor fit] | –
66 | CN(C(=O)COC(=O)/C=C/c1cn(-c2ccccc2)nc1-c1ccc2c(c1)OCCO2)C1CCS(=O)(=O)C1 (centres undefined) | inconclusive: 1.26 µM [activator, partial curve, poor fit] | –
67 | CC(=O)c1ccc(NC(=S)N(C)C2CCN(C)CC2)cc1 | inactive | –
68 | COc1ccc(N(CCC(=O)NCCc2ccccc2)S(=O)(=O)c2ccc(C)cc2C)cc1 | inconclusive: 28.2 µM [activator, single point] | –
69 | CC(=O)c1c(C)n(-c2ccc(Cl)cc2)c2ccc(O)cc12 | inconclusive: 5.01 µM [activator, single point] | –

3 compounds picked at random from the list so far, as already listed:
Row | SMILES | Potency | activation
59 | Nc1nc(SCC(=O)Nc2ccc([N+](=O)[O-])cc2)[nH]c(=O)c1NC(=O)c1ccc(Br)o1 | inactive | –
67 | CC(=O)c1ccc(NC(=S)N(C)C2CCN(C)CC2)cc1 | inactive | –
50 | Cc1ccc(-n2c(SCC(=O)Nc3cccc(S(=O)(=O)NC4=NCCCCC4)c3)nc3ccccc3c2=O)cc1C | inconclusive: 3.55 µM [activator, partial curve, poor fit] | –
